Reference: PubChem BioAssay AID1259425 (University of Nebraska Medical Center, 2018)

- Purpose: 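Find knockdowns that reproduce the gene expression pattern seen when KSR1 is lost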 (primary screen)
- Cells: HCT116 human colon cancer cells
- Knock-down reagent: siRNA pool against human genes, 50 nM siRNA
- Read-out: 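mRNA of six signature genes measured together by branched-DNA assay after 50 nM siRNA pool, blank removed, divided by geometric mean of two housekeeping genes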
- Direction: BNIP3L mRNA: higher = more BNIP3L transcript after knockdown
The deposit covers about 14,000 reagents; this is a part drawn at random. Not all columns of the deposit are shown. Not stated in the record: the time to read-out.

C4A (GeneID 720): BNIP3L mRNA, set 1 = 0.116
HMBOX1 (GeneID 79618): BNIP3L mRNA, set 1 = 0.125
WWC1 (GeneID 23286): BNIP3L mRNA, set 1 = 0.132
EIF5A2 (GeneID 56648): BNIP3L mRNA, set 1 = 0.107
MT-ATP8 (GeneID 4509): BNIP3L mRNA, set 1 = 0.0924
MMP19 (GeneID 4327): BNIP3L mRNA, set 1 = 0.0595
ANKRD27 (GeneID 84079): BNIP3L mRNA, set 1 = 0.395
ITGB7 (GeneID 3695): BNIP3L mRNA, set 1 = 0.164
NDUFA12 (GeneID 55967): BNIP3L mRNA, set 1 = 0.0856
CCN2 (GeneID 1490): BNIP3L mRNA, set 1 = 0.15
LONP1 (GeneID 9361): BNIP3L mRNA, set 1 = 0.168
BLOC1S6 (GeneID 26258): BNIP3L mRNA, set 1 = 0.102
GNG5 (GeneID 2787): BNIP3L mRNA, set 1 = 0.172
THAP11 (GeneID 57215): BNIP3L mRNA, set 1 = 0.127
CYLC2 (GeneID 1539): BNIP3L mRNA, set 1 = 0.0786
TMTC4 (GeneID 84899): BNIP3L mRNA, set 1 = 0.304
LY6G6D (GeneID 58530): BNIP3L mRNA, set 1 = 0.243
UVRAG (GeneID 7405): BNIP3L mRNA, set 1 = 0.231
SIGLEC5 (GeneID 8778): BNIP3L mRNA, set 1 = 0.158
CXXC1 (GeneID 30827): BNIP3L mRNA, set 1 = 0.124
TXLNG (GeneID 55787): BNIP3L mRNA, set 1 = 0.0545
ADAM15 (GeneID 8751): BNIP3L mRNA, set 1 = 0.102
SYNM (GeneID 23336): BNIP3L mRNA, set 1 = 0.139
KIAA1210 (GeneID 57481): BNIP3L mRNA, set 1 = 0.0911
PKN3 (GeneID 29941): BNIP3L mRNA, set 1 = 0.163
MORC4 (GeneID 79710): BNIP3L mRNA, set 1 = 0.154
ABI2 (GeneID 10152): BNIP3L mRNA, set 1 = 0.097
ZNF577 (GeneID 84765): BNIP3L mRNA, set 1 = 0.2
